Earlier results, collected in patent publication US20180214412A1, “IMMEDIATE RELEASE CANNABINOID FORMULATIONS” (CannTab Therapeutics Limited, priority 2017, published 2018).

Question: For CCCCCc1cc(O)c2c(c1)OC(C)(C)[C@@H]1CCC(C)=C[C@@H]21 [Dronabinol, (−)-trans-Δ9-tetrahydrocannabinol], which solubility in water is on record?
Answer: Its solubility in water is “insoluble”.
